{"source": "patent US20240158693A1", "about": "“Probe for Hydrogen Sulfide Detection, Method for Manufacturing Same, and Composition for Hydrogen Sulfide Detection, Comprising Same” (Korea Institute of Ocean Science &Technology, priority 2020, published 2024)", "assay": "Quantitative detection of spiked H2S in human serum", "conditions": "for Found: human serum", "data": [{"compound": "CCN(CC)c1ccc(-c2cc3c(s2)c(-c2ccc(OS(=O)(=O)c4ccc([N+](=O)[O-])cc4[N+](=O)[O-])cc2)cc(=O)n3C)cc1", "note": "[KF-DNBS, 4-(2-(4-(diethylamino)phenyl)-4-methyl-5-oxo-4,5-dihydrothieno[3,2-b]pyridin-7-yl)phenyl 2,4-dinitrobenzenesulfonate]", "values": [{"measurement": "effect of analytes present in human serum on fluorescence response to spiked H2S", "setting": "human serum with biothiols and proteins, no additional process", "result": "unaffected"}, {"measurement": "Found", "setting": "H2S added 25 μM", "result": 26, "unit": "µM"}, {"measurement": "Found", "setting": "H2S added 50 μM", "result": 51, "unit": "µM"}, {"measurement": "Found", "setting": "H2S added 100 μM", "result": 95, "unit": "µM"}, {"measurement": "Found", "setting": "H2S added 150 μM", "result": 163, "unit": "µM"}]}]}
